# PubChem BioAssay AID1259314 – Drosophila RNAi Screening Center | 2017
# Test: 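Modifiers of manganese chloride toxicity in fly cells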 (primary screen)
# Cell system: Drosophila S2R+ cells
# Reagents: long dsRNA against Drosophila genes
# Timing: 5 days (4 days knock-down, then 1 day metal exposure)
# Challenge: manganese chloride added to 15 mM for 24 hours
# Read-out: 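Cellular ATP measured by luciferase light, scaled to the plate mean, averaged across replicates and z-scored over plates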
# Scale: mean ATP z-score: higher = more ATP than the plate average, more viable cells under manganese
# Hit rule: 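a mean ATP z-score past 1.5 in either direction is called active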
# Meaning of the calls: active = strong ATP change, up or down; inactive = no strong ATP change
# Here is an unselected part of about 3,100 reagents. Of all reagents, 289 (9.3%) are marked active. 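Active includes both higher and lower ATP than plate average; check the z-score sign for direction.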 The numbers tell different reagents against one gene apart. A plus sign joins genes that one reagent is predicted to hit. The record does not give: the amount of reagent.
target gene,reagent no.,mean ATP z-score,outcome
CG15211,1,0.508,inactive
CG15211,2,-0.334,inactive
PGRP-LF,1,-0.148,inactive
ds,1,0.124,inactive
asRNA:CR30267 + CG42260,1,0.0746,inactive
CG13409,1,-0.0816,inactive
CG13409,2,1.2,inactive
Or42a,1,-0.261,inactive
CG8046,1,-0.348,inactive
CG42287,1,-0.378,inactive
zyd,1,-0.488,inactive
zyd,2,-0.803,inactive
CG17752,1,0.647,inactive
CG17752,2,0.342,inactive
CG6974,1,0.12,inactive
ppk25,1,0.22,inactive
ppk25,2,-0.336,inactive
CG13160,1,-0.159,inactive
CG4991,1,-0.818,inactive
CG4991,2,0.36,inactive
Gr59e,1,0.269,inactive
Gr59e,2,-1.42,inactive
Mgat2,1,-0.992,inactive
Mgat2,2,-0.439,inactive
Syb,1,-1.41,inactive
Syb,2,0.312,inactive
Itgbn,1,0.737,inactive
Itgbn,2,-0.583,inactive
Ser,1,-0.124,inactive
Ser,2,-1.09,inactive
sev,1,-0.521,inactive
sev,2,0.691,inactive
sev,3,-0.0911,inactive
Or33c,1,1.04,inactive
otk,1,-0.224,inactive
otk,2,1.45,inactive
otk,3,-0.063,inactive
otk,4,0.276,inactive
CG34435,1,0.0941,inactive
CG34435,2,0.161,inactive
CG31445,1,-1.14,inactive
CG31445,2,0.474,inactive
CG14855,1,0.366,inactive
CG14855,2,2.03,active
Gr64d + Gr64e,1,-1.33,inactive
Gr64d + Gr64e,2,-0.32,inactive
Gr64d + Gr64e,3,-0.698,inactive
dsb,1,-0.688,inactive
Eglp2,1,-0.994,inactive
Eglp2,2,0.486,inactive
CG14070,1,0.874,inactive
Tre1,1,-1.19,inactive
Tre1,2,-0.00536,inactive
CG5348,1,-0.599,inactive
CG5348,2,1.06,inactive
CG5404,1,-0.97,inactive
CG5404,2,-0.201,inactive
CG12061,1,0.736,inactive
CG12061,2,-0.923,inactive
ort,1,0.439,inactive
ort,2,0.083,inactive
PIG-T,1,0.154,inactive
PIG-T,2,-1.12,inactive
Rdl,1,0.333,inactive
Rdl,2,-1.76,active
CG13877 + pyx,1,1.62,active
Oatp33Eb,1,-0.197,inactive
Oatp33Eb,2,-0.166,inactive
nAChRbeta2,1,1.26,inactive
dy,1,0.267,inactive
dy,2,-0.983,inactive
Best1,1,1.94,active
Best1,2,0.537,inactive
Grd,1,-1.37,inactive
Grd,2,0.895,inactive
CG7912,1,-0.858,inactive
bon + CG15923,1,-0.378,inactive
CG12531,1,-0.0895,inactive
CG12531,2,-0.293,inactive
Or22b,1,5.76,active
Or22b,2,-0.391,inactive
Or83a + CG1172,1,-0.322,inactive
Or83a + CG1172,2,-0.556,inactive
fz,1,0.249,inactive
fz,2,-0.0837,inactive
Gr22c,1,-0.0256,inactive
Syt1,1,0.266,inactive
Syt1,2,-0.834,inactive
Syt1,3,-0.129,inactive
Syt1,4,-1.01,inactive
Pex3,1,-1.18,inactive
Ih,1,-1.74,active
Ih,2,0.89,inactive
LpR1,1,-2.43,active
LpR1,2,1.44,inactive
LpR1,3,1.17,inactive
babo,1,0.994,inactive
babo,2,-0.548,inactive
babo,3,0.432,inactive
Miro,1,-0.16,inactive
Miro,2,-0.645,inactive
rut,1,-0.159,inactive
Ir8a,1,0.241,inactive
Ir8a,2,0.499,inactive
CG1801,1,0.0139,inactive
CG1806,1,0.198,inactive
Start1,1,-0.788,inactive
Start1,2,0.126,inactive
Fas2,1,0.745,inactive
Fas2,2,0.92,inactive
Fas2,3,0.0779,inactive

Targets above whose target name starts with O or o (14):
target gene,reagent no.,mean ATP z-score,outcome
Or42a,1,-0.261,inactive
Or33c,1,1.04,inactive
otk,1,-0.224,inactive
otk,2,1.45,inactive
otk,3,-0.063,inactive
otk,4,0.276,inactive
ort,1,0.439,inactive
ort,2,0.083,inactive
Oatp33Eb,1,-0.197,inactive
Oatp33Eb,2,-0.166,inactive
Or22b,1,5.76,active
Or22b,2,-0.391,inactive
Or83a + CG1172,1,-0.322,inactive
Or83a + CG1172,2,-0.556,inactive
